# Laboratory results taken from the supplement of paper PMC10849652.
# Amino acid sequences for entries named in this document (tags omitted). A change or cut given only in a name is not applied to a line headed by its entry.
# UniProt Q8N0X7: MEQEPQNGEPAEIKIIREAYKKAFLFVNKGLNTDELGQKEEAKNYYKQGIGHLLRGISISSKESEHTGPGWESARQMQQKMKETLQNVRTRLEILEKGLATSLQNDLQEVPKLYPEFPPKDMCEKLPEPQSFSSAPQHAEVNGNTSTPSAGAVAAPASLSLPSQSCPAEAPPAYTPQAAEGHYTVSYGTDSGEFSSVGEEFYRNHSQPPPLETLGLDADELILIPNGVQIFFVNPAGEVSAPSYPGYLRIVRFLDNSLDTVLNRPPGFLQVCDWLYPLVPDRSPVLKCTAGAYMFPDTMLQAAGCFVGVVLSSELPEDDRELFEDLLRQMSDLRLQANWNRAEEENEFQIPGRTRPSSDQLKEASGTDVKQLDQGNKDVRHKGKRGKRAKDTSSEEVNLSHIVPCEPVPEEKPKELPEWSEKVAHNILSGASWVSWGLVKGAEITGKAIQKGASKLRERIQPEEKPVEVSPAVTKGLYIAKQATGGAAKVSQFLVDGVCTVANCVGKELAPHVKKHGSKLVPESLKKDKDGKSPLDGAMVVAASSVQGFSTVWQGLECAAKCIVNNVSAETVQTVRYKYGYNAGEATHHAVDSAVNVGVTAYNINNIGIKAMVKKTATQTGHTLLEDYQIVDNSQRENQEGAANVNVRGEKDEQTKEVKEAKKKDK
# UniProt P42224: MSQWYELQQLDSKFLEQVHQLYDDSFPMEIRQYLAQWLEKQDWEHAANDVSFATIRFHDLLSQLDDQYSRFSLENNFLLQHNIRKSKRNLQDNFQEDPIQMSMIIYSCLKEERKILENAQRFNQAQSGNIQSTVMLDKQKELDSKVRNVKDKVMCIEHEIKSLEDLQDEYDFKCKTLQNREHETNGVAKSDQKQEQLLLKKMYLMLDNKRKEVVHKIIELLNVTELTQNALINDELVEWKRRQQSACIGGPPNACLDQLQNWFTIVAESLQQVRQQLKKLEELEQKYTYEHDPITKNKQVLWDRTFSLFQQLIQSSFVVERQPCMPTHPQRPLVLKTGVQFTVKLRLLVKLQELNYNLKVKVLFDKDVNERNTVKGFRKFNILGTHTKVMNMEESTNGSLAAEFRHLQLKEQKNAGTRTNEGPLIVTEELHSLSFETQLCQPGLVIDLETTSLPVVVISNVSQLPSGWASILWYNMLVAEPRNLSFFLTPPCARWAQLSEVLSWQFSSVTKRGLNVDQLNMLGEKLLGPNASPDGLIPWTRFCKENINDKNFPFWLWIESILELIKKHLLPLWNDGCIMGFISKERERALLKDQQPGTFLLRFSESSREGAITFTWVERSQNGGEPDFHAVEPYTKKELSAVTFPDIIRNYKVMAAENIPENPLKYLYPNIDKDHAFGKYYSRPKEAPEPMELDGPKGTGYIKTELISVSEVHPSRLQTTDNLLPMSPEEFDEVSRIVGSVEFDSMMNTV
# UniProt Q05519: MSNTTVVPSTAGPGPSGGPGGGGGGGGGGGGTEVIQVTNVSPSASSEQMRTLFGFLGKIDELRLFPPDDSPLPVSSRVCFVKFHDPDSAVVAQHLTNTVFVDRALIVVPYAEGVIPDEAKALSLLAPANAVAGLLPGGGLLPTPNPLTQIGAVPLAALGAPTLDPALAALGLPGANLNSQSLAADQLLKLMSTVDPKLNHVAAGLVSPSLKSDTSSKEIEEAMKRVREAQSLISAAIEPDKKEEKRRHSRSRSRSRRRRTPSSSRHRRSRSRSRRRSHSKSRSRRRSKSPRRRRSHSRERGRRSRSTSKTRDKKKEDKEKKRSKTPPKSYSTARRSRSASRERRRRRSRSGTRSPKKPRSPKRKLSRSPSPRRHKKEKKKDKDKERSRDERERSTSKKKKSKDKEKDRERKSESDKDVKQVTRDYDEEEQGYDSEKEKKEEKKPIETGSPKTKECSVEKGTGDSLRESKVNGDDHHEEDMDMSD
# UniProt P09486: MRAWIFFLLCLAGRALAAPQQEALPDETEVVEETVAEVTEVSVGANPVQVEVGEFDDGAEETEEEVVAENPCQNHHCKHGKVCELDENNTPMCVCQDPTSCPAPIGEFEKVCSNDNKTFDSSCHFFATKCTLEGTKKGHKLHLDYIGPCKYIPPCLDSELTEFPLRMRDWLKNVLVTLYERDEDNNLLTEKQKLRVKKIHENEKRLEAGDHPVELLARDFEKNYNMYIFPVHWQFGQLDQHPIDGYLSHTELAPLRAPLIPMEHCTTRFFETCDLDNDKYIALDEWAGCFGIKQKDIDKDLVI
# UniProt Q08945, whole entry, looked up: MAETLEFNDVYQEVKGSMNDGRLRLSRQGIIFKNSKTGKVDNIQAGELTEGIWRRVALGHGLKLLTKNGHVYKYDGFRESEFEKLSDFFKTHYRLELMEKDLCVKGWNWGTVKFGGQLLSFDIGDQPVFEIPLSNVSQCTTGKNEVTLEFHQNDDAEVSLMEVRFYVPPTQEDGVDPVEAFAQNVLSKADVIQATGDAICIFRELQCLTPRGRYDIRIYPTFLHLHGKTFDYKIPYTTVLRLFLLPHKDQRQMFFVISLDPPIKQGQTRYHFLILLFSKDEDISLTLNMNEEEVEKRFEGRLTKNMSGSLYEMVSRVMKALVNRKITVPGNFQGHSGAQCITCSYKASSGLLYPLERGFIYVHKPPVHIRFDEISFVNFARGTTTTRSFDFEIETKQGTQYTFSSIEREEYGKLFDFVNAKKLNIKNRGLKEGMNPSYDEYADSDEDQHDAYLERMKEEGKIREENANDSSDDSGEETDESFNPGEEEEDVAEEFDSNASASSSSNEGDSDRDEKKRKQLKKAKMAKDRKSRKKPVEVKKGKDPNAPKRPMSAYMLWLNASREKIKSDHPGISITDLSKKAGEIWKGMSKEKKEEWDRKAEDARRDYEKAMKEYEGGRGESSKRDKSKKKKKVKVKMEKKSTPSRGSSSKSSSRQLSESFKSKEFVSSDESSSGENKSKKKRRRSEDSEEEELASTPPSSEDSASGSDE
# UniProt P43307: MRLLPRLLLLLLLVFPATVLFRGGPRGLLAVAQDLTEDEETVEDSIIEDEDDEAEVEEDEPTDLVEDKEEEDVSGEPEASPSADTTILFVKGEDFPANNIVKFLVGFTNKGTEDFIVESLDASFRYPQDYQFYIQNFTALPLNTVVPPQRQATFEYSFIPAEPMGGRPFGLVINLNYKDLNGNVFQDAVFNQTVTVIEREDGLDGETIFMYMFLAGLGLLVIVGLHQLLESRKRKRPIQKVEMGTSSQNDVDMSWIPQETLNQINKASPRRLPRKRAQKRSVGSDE
# UniProt P30626: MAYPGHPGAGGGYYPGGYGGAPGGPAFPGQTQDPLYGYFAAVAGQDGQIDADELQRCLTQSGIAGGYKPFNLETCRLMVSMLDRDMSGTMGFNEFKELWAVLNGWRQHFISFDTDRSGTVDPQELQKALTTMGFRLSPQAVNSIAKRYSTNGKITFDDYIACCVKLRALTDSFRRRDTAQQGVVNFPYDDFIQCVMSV
# UniProt Q13242, whole entry, looked up: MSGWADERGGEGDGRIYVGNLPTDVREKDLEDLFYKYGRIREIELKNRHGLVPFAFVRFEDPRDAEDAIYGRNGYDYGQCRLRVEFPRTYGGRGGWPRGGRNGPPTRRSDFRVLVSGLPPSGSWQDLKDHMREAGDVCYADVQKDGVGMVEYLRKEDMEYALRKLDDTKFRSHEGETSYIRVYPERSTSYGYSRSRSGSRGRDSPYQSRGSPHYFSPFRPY
# UniProt Q9UHB9: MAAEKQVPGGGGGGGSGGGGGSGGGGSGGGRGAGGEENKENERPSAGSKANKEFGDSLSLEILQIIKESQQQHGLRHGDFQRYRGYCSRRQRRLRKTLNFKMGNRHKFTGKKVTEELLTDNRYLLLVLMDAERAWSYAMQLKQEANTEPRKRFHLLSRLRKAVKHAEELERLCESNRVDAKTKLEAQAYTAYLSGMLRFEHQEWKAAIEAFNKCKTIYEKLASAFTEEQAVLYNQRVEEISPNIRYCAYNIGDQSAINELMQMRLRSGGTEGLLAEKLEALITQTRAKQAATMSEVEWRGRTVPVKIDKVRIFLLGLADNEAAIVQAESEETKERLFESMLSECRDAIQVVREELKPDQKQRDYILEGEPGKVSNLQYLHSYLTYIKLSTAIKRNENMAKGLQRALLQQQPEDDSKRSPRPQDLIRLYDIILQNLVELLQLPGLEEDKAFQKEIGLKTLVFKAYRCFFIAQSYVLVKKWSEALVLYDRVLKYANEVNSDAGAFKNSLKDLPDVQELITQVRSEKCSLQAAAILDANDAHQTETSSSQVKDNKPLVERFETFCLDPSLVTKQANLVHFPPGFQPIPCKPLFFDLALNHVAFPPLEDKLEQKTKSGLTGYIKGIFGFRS
# UniProt P84103: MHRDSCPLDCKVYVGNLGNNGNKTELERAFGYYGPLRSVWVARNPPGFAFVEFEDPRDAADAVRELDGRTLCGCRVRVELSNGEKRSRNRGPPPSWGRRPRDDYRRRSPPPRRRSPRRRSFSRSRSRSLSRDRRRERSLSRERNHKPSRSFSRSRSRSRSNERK
# UniProt O15270: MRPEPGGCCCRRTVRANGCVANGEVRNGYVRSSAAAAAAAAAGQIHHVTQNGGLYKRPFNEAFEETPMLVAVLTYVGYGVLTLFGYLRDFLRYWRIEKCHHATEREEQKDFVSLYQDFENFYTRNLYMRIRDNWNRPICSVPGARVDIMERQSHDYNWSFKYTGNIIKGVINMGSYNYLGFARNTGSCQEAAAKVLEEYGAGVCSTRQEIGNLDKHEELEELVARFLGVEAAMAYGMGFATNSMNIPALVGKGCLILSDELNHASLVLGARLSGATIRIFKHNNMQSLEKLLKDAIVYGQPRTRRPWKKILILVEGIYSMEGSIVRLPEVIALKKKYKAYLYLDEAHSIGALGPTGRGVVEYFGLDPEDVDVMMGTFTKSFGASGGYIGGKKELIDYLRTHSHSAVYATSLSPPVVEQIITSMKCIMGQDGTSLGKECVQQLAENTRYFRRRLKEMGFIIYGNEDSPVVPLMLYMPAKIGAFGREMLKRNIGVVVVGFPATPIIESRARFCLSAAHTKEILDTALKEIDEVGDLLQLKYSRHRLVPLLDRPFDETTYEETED
# UniProt Q9UBP0: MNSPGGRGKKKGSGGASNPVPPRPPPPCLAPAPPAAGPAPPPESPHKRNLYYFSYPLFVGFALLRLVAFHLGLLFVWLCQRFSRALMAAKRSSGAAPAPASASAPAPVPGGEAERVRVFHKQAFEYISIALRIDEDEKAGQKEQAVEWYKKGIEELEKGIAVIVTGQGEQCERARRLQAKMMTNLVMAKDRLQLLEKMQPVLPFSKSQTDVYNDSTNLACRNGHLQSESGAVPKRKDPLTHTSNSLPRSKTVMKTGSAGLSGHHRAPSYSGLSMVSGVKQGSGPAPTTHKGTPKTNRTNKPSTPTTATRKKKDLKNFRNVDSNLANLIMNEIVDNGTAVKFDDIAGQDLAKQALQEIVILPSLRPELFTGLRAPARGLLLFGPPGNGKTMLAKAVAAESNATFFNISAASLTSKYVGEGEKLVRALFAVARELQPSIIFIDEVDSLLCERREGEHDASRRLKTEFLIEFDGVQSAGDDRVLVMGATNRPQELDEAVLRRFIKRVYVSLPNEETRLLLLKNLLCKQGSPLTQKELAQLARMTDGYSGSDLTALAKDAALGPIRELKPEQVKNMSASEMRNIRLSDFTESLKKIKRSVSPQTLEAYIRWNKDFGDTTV
# UniProt Q9BUA3: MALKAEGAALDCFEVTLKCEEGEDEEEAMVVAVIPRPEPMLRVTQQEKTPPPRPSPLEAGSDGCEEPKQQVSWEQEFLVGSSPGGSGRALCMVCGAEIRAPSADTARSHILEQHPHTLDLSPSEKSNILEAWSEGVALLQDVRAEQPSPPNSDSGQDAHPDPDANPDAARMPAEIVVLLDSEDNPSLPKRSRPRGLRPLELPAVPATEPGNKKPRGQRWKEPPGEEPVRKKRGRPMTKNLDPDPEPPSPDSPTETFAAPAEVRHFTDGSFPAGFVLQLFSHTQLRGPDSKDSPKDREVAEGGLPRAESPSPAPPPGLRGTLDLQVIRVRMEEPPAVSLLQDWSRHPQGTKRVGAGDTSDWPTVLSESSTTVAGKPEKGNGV
# UniProt P09132: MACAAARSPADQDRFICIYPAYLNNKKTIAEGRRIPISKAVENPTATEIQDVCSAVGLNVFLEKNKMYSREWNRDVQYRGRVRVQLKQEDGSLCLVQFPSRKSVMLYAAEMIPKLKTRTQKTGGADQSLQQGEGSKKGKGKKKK
# UniProt Q5W111: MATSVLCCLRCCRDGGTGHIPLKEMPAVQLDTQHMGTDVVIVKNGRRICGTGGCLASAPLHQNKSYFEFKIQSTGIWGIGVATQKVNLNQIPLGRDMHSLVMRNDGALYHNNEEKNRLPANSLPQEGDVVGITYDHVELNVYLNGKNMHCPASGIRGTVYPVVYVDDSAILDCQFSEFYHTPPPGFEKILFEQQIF
# The list shows a part of the results.
# What was measured:
# Assay in all cases: log2 fold change, soluble protein after heating vs DMSO (PISA); higher = thermal stabilisation; K562 cells, 10 uM, 30 min; active = over 0.2 and 3.5 SD of the protein, either way, in both replicates (recomputed)
# [1] = compound: CC1=C(C=C(C=C1)NC(=O)C2=CC(=CC=C2)C(C)(C)C#N)NC3=CC4=C(C=C3)N=CN(C4=O)C
# Summary of the method: (§1)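 K562 cells (2×10^6 cells/mL) were treated with 10 μM compound for 30 min, and aliquots were heated for 3 min over 48°C-58°C. Pooled aliquots were extracted in PBS with 0.5% NP-40 at 4°C, and the supernatant after 21,000xg for 90 min was measured by TMTpro 16plex LC-MS/MS with channel sums equalised. Reported thermal stability, relative to control samples and from duplicates, is a log2 fold change.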
# [2] = compound: CC1=C(C=C(C=C1)NC(=O)C2=CC(=CC=C2)N(C)C)NC(=O)C3=CC=C(C=C3)O
# Summary of the method: as §1
# [3] = compound: CC1=CC=C(C=C1)SC2=C3C=C(SC3=CN=C2)C(=O)N
# Summary of the method: as §1
# [4] = compound: CC1=NC(=CC=C1)C2=C(N=C(N2)C(C)(C)C)C3=CC4=NC=CN=C4C=C3
# Summary of the method: as §1
# Nexturastat A = compound: CCCCN(Cc1ccc(C(=O)NO)cc1)C(=O)Nc1ccccc1 [Nexturastat A]
# Summary of the method: as §1
# vemurafenib = compound: CCCS(=O)(=O)Nc1ccc(F)c(C(=O)c2c[nH]c3ncc(-c4ccc(Cl)cc4)cc23)c1F [vemurafenib]
# Summary of the method: as §1
# [5] = compound: CCCS(=O)(=O)Nc1ccc(F)c(C(=O)c2c[nH]c3ncc(Cl)cc23)c1F
# Summary of the method: as §1
# [6] = compound: CCCc1cc(C)[nH]c(=O)c1CNC(=O)c1cc(-c2ccnc(N3CCN(C)CC3)c2)cc2c1cnn2C(C)C
# Summary of the method: as §1
# givinostat = compound: CCN(CC)Cc1ccc2cc(COC(=O)Nc3ccc(C(=O)NO)cc3)ccc2c1 [givinostat]
# Summary of the method: as §1
# barasertib = compound: CCN(CCCOc1ccc2c(Nc3cc(CC(=O)Nc4cccc(F)c4)[nH]n3)ncnc2c1)CCOP(=O)(O)O [barasertib]
# Summary of the method: as §1
# [7] = compound: CC[C@@H]1C(=O)N(C)c2cnc(Nc3ccc(C(=O)NC4CCN(C)CC4)cc3OC)nc2N1C1CCCC1
# Summary of the method: as §1
# volasertib = compound: CC[C@@H]1C(=O)N(C)c2cnc(Nc3ccc(C(=O)N[C@H]4CC[C@H](N5CCN(CC6CC6)CC5)CC4)cc3OC)nc2N1C(C)C [volasertib]
# Summary of the method: as §1
# [8] = compound: CC[C@H](C)N1C=C(C2=C(C=C(C=C21)C3=CN=C(C=C3)N4CCNCC4)C(=O)NCC5=C(C=C(NC5=O)C)C)C
# Summary of the method: as §1
# epoxomicin = compound: CC[C@H](C)[C@@H](C(=O)N[C@@H]([C@@H](C)O)C(=O)N[C@@H](CC(C)C)C(=O)[C@]1(CO1)C)NC(=O)[C@H]([C@@H](C)CC)N(C)C(=O)C [epoxomicin]
# Summary of the method: as §1
# [9] = compound: CCn1cc(-c2ccnc3[nH]c(-c4cccc(CN(C)C)c4)cc23)c(-c2ccc(NC(=O)N(C)C)cc2)n1
# Summary of the method: as §1
# [10] = compound: CN(C)CC(=O)Nc1ccc2[nH]c(=O)c3ccccc3c2c1
# Summary of the method: as §1
# [11] = compound: CN1C2=C(C3=C1C(=O)N(N=C3)CC4=CC(=CC=C4)N)SC(=C2)S(=O)C
# Summary of the method: as §1
# [12] = compound: CN1CCC(CNc2ccc3ncc(-c4cccc(OC(F)(F)F)c4)n3n2)CC1
# Summary of the method: as §1
# [13] = compound: CCn1c(C(=O)N(C2CC2)C2CC2)cc2c3c(ncn3C)c(Nc3cc(C)n(C)n3)nc21
# Summary of the method: as §1
# rosiglitazone = compound: CN(CCOC1=CC=C(C=C1)C[C@H]2C(=O)NC(=O)S2)C3=CC=CC=N3 (racemic) [rosiglitazone]
# Summary of the method: as §1
Target,log2 fold change [1],log2 fold change [2],log2 fold change [3],log2 fold change [4],log2 fold change (Nexturastat A),log2 fold change (vemurafenib),log2 fold change [5],log2 fold change [6],log2 fold change (givinostat),log2 fold change (barasertib),log2 fold change [7],log2 fold change (volasertib),log2 fold change [8],log2 fold change (epoxomicin),log2 fold change [9],log2 fold change [10],log2 fold change [11],log2 fold change [12],log2 fold change [13],log2 fold change (rosiglitazone)
SPART (UniProt Q8N0X7),inactive: 0.007,inactive: -0.027,inactive: 0.055,inactive: -0.014,inactive: 0.005,inactive: -0.046,inactive: 0.088,inactive: -0.025,inactive: 0.001,inactive: 0.037,inactive: -0.031,active: -0.224,inactive: -0.005,inactive: -0.123,inactive: 0.014,inactive: 0.069,inactive: -0.035,inactive: -0.052,,
SPG11 (UniProt Q96JI7),inactive: -0.384,inactive: 0.068,inactive: -0.063,inactive: -0.182,inactive: 0.359,inactive: -0.415,inactive: -0.008,inactive: -1.21,inactive: 0.023,inactive: 0.029,inactive: 0.155,inactive: -0.294,inactive: 0.017,inactive: -0.085,inactive: 0.141,inactive: -0.216,inactive: 0.367,active: -1.24,,
STAT1 (UniProt P42224),inactive: 0.028,inactive: 0.026,inactive: 0.069,inactive: -0.068,inactive: 0.444,inactive: 0.115,inactive: 0.13,inactive: 0.198,inactive: 0.144,inactive: -0.07,inactive: 0.029,inactive: -0.085,inactive: 0.086,inactive: -0.028,inactive: -0.039,inactive: -0.03,inactive: 0.262,inactive: -0.041,inactive: -0.041,inactive: 0.049
SRSF11 (UniProt Q05519),inactive: -0.029,inactive: -0.058,inactive: 0.009,inactive: 0.032,inactive: -0.022,inactive: 0.007,inactive: 0.087,inactive: 0.053,inactive: 0.059,inactive: 0.023,inactive: -0.088,active: -0.311,inactive: 0.074,inactive: 0.047,inactive: -0.072,inactive: 0.02,inactive: -0.018,inactive: 0.128,,
SPARC (UniProt P09486),inactive: 0.011,inactive: 0.117,inactive: -0.018,inactive: 0.054,inactive: 0.079,inactive: 0.07,inactive: -0.029,inactive: -0.027,inactive: 0.015,inactive: -0.006,inactive: 0.103,inactive: 0.015,inactive: -0.012,inactive: -0.08,inactive: -0.025,inactive: 0.05,inactive: 0.119,inactive: 0.055,inactive: 0.065,inactive: -0.028
SSRP1 (UniProt Q08945),inactive: -0.072,inactive: -0.049,inactive: 0.018,inactive: 0.091,inactive: -0.069,inactive: 0.051,inactive: 0.062,inactive: 0.015,inactive: 0.033,inactive: 0.059,inactive: -0.121,active: -0.412,inactive: 0.052,inactive: 0.02,inactive: 0.007,inactive: 0.01,inactive: -0.003,inactive: -0.067,,
SSR1 (UniProt P43307),inactive: -0.021,inactive: 0.015,inactive: 0.003,inactive: -0.01,inactive: -0.062,inactive: -0.009,inactive: 0.005,inactive: 0.006,inactive: -0.033,inactive: -0.02,inactive: 0.034,inactive: 0.029,inactive: -0.032,inactive: -0.012,inactive: -0.006,inactive: 0.007,inactive: 0.001,inactive: 0.07,inactive: 0.051,inactive: 0.003
SRI (UniProt P30626),inactive: 0.035,inactive: -0.092,inactive: 0.094,inactive: 0.037,inactive: -0.073,inactive: 0.092,inactive: 0.045,inactive: -0.055,inactive: -0.03,inactive: 0.107,inactive: 0.008,inactive: -0.111,inactive: -0.013,active: 0.393,inactive: -0.058,inactive: 0.009,inactive: -0.071,inactive: 0.126,,
SQSTM1 (UniProt Q13501),inactive: 0.04,inactive: -0.065,inactive: -0.054,inactive: -0.012,inactive: 0.102,inactive: 0.064,inactive: 0.047,inactive: 0.103,inactive: -0.027,inactive: 0.032,inactive: -0.09,inactive: -0.204,inactive: 0.021,inactive: -0.056,inactive: -0.112,inactive: 0.042,inactive: 0.043,inactive: -0.022,,
SRSF9 (UniProt Q13242),inactive: -0.044,inactive: 0.015,inactive: -0.083,inactive: -0.082,inactive: 0.37,inactive: -0.116,inactive: 0.076,inactive: 0.075,inactive: 0.151,inactive: -0.082,inactive: 0.189,inactive: 0.414,inactive: -0.004,inactive: -0.421,inactive: 0.323,inactive: -0.106,inactive: 0.506,inactive: 0.364,,
SRP68 (UniProt Q9UHB9),inactive: 0.028,inactive: -0.062,inactive: 0,inactive: 0.018,inactive: 0.125,inactive: 0.063,inactive: 0.091,inactive: 0.064,inactive: 0.075,inactive: 0.078,inactive: -0.077,active: -0.487,inactive: 0.079,inactive: 0.094,inactive: -0.024,inactive: 0.019,inactive: 0.133,inactive: -0.18,,
SRSF3 (UniProt P84103),inactive: -0.019,inactive: 0.047,inactive: -0.208,inactive: -0.103,inactive: 0.124,inactive: -0.064,inactive: -0.173,inactive: 0.047,inactive: -0.029,inactive: -0.093,inactive: 0.198,inactive: 0.313,inactive: -0.075,inactive: -0.213,inactive: 0.189,inactive: -0.139,inactive: 0.18,inactive: 0.233,,
SPTLC2 (UniProt O15270),inactive: 0.049,inactive: -0.019,inactive: 0.007,inactive: 0.015,inactive: -0.06,inactive: 0.005,inactive: 0.021,inactive: -0.001,inactive: 0.003,inactive: 0.026,inactive: 0.055,inactive: -0.044,inactive: -0.014,inactive: 0.013,inactive: -0.043,inactive: 0.013,inactive: -0.056,inactive: -0.012,inactive: 0,inactive: 0.028
SPAST (UniProt Q9UBP0),inactive: -0.032,inactive: -0.05,inactive: 0.049,inactive: 0.029,inactive: -0.047,inactive: 0.068,inactive: 0.021,inactive: 0.062,inactive: 0.074,inactive: 0.045,inactive: -0.128,inactive: -0.242,inactive: 0.107,inactive: 0.021,inactive: 0.035,inactive: 0.079,inactive: -0.046,inactive: -0.043,,
SPINDOC (UniProt Q9BUA3),inactive: 0.157,inactive: 0.037,inactive: -0.074,inactive: -0.139,inactive: -0.014,inactive: 0.113,inactive: 0.11,inactive: -0.013,inactive: -0.127,inactive: 0.129,inactive: -0.131,inactive: -0.178,inactive: -0.243,inactive: 0.071,inactive: 0.105,inactive: 0.074,inactive: -0.222,inactive: -0.02,,
SRP19 (UniProt P09132),inactive: 0.023,inactive: -0.011,inactive: 0.106,inactive: -0.006,inactive: 0.045,inactive: 0.011,inactive: 0.078,inactive: -0.048,inactive: 0.02,inactive: 0.052,inactive: -0.029,inactive: -0.249,inactive: 0.04,inactive: 0.001,inactive: -0.031,inactive: 0.043,inactive: 0.015,inactive: 0.058,inactive: -0.199,inactive: 0.001
SPRYD7 (UniProt Q5W111),inactive: -0.051,inactive: -0.017,inactive: 0.023,inactive: -0.016,inactive: 0.026,inactive: -0.025,inactive: 0.019,inactive: 0.074,inactive: 0.02,inactive: 0.002,inactive: -0.031,inactive: -0.246,inactive: 0.05,inactive: 0.011,inactive: 0.082,inactive: -0.036,inactive: -0.082,inactive: 0.058,inactive: -0.026,inactive: -0.02

# A different layout for part of the listing above.
Target | log2 fold change [1] | log2 fold change [2] | log2 fold change [3] | log2 fold change [4] | log2 fold change (Nexturastat A) | log2 fold change (vemurafenib) | log2 fold change [5] | log2 fold change [6] | log2 fold change (givinostat) | log2 fold change (barasertib) | log2 fold change [7] | log2 fold change (volasertib) | log2 fold change [8] | log2 fold change (epoxomicin) | log2 fold change [9] | log2 fold change [10] | log2 fold change [11] | log2 fold change [12] | log2 fold change [13] | log2 fold change (rosiglitazone)
SRSF11 (UniProt Q05519) | inactive: -0.029 | inactive: -0.058 | inactive: 0.009 | inactive: 0.032 | inactive: -0.022 | inactive: 0.007 | inactive: 0.087 | inactive: 0.053 | inactive: 0.059 | inactive: 0.023 | inactive: -0.088 | active: -0.311 | inactive: 0.074 | inactive: 0.047 | inactive: -0.072 | inactive: 0.02 | inactive: -0.018 | inactive: 0.128 |  | 
SPTLC2 (UniProt O15270) | inactive: 0.049 | inactive: -0.019 | inactive: 0.007 | inactive: 0.015 | inactive: -0.06 | inactive: 0.005 | inactive: 0.021 | inactive: -0.001 | inactive: 0.003 | inactive: 0.026 | inactive: 0.055 | inactive: -0.044 | inactive: -0.014 | inactive: 0.013 | inactive: -0.043 | inactive: 0.013 | inactive: -0.056 | inactive: -0.012 | inactive: 0 | inactive: 0.028
